The test system of the test is nude mice, LX-1 lung xenograft intrarenal, tumor weight T/C. Description: NCI In Vivo Anticancer Drug Screen. Data for tumor model Human Lung LX-1 Xenograft (intrarenal inoculation) in NU/NU Swiss (nude) mice. Conditions: T/C endpoint: mean tumor weight change, higher T/C = larger tumour; for T/C: evaluated on day 11. Here is the method: The antitumor activity of compounds was measured in mice bearing transplantable tumors. Survival or tumor size were measured and the results are expressed as the measurement made in the treated group (T) divided by the measurement made in the vehicle treated control group (C). The tumor model used in this assay is Human Lung LX-1 Xenograft (intrarenal inoculation) in NU/NU Swiss (nude) mice

The list is a part of this screen's results and no random one: it gathers some chemical classes. Other doses and runs of a compound may be missing. T/C is the treated group as % of the vehicle group. Schedule codes are those of the source, read here as Q, the interval in days (D) or hours (H), X, the number of doses. Some T/C values carry the count of animals alive at the toxicity check; where neither a count nor a note follows, no animal had died by that day. Some doses have a count of surviving animals in place of a T/C: the source files T/C as zero there, which appears to mark a toxic dose or a test without result, not a measured value. Survivors were counted at the toxicity check; its day is shown where the source gives one, and later deaths do not show.

On to `C[N+](CCCl)(CCCl)Cc1ccc([N+](=O)[O-])cc1`, for which the T/C (dose: 12.5 mg/kg/injection, schedule: Q04DX003 (sc), vehicle: saline) is 136 % of control; the T/C (dose: 25.0 mg/kg/injection, schedule: Q04DX003 (sc), vehicle: saline) is 104 % of control; the T/C (dose: 50.0 mg/kg/injection, schedule: Q04DX003 (sc), vehicle: saline) is 82 % of control.

On to `Cc1ccc(N(CCBr)CCBr)cc1`, for which the T/C runs as follows: (dose: 18.75 mg/kg/injection, schedule: Q04DX003 (sc), vehicle: Klucel (hydroxypropylcellulose) (HPC)) 94 % of control; (dose: 37.5 mg/kg/injection, schedule: Q04DX003 (sc), vehicle: Klucel (hydroxypropylcellulose) (HPC)) 73 % of control. Besides, the survivor count is listed as 0 of 6 on day 11 (dose: 75.0 mg/kg/injection, schedule: Q04DX003 (sc), vehicle: Klucel (hydroxypropylcellulose) (HPC)) and 0 of 6 on day 11 (dose: 150.0 mg/kg/injection, schedule: Q04DX003 (sc), vehicle: Klucel (hydroxypropylcellulose) (HPC)).

In the case of `O=NN(CCSCCCl)C(=O)NC1CCCCC1`, the T/C reads like this: (dose: 300.0 mg/kg/injection, schedule: Q04DX003 (sc), vehicle: saline with Tween-80) 82 % of control; (dose: 600.0 mg/kg/injection, schedule: Q04DX003 (sc), vehicle: saline with Tween-80) 81 % of control.

Turning to `ClCCN(CCCl)c1ccccc1`, the T/C by setting is: (dose: 3.13 mg/kg/injection, schedule: Q01DX010 (sc), vehicle: saline with Tween-80) 120 % of control; (dose: 6.25 mg/kg/injection, schedule: Q01DX010 (sc), vehicle: saline with Tween-80) 89 % of control [2 of 2 alive on day 11]; (dose: 12.5 mg/kg/injection, schedule: Q01DX010 (sc), vehicle: saline with Tween-80) 122 % of control. In addition, the survivor count (dose: 25.0 mg/kg/injection, schedule: Q01DX010 (sc), vehicle: saline with Tween-80) is 0 of 3 on day 11.

In the case of `NC1CCCCC1.NP(=O)(O)N(CCCl)CCCl`, the T/C is 133 % of control (dose: 150.0 mg/kg/injection, schedule: Q04DX003 (sc), vehicle: water) and 41 % of control (dose: 300.0 mg/kg/injection, schedule: Q04DX003 (sc), vehicle: water). For the same compound, the survivor count (dose: 600.0 mg/kg/injection, schedule: Q04DX003 (sc), vehicle: water) is 0 of 3 on day 11.

As for `CC1=CC(=O)C(N(CCCl)CCCl)=CC1=O`, the T/C (dose: 0.75 mg/kg/injection, schedule: Q01DX010 (sc), vehicle: Klucel (hydroxypropylcellulose) (HPC)) is 41 % of control; the T/C (dose: 1.5 mg/kg/injection, schedule: Q01DX010 (sc), vehicle: Klucel (hydroxypropylcellulose) (HPC)) was 37 % of control [2 of 2 alive on day 11]; the T/C (dose: 3.0 mg/kg/injection, schedule: Q01DX010 (sc), vehicle: Klucel (hydroxypropylcellulose) (HPC)) was 40 % of control.
